In paper PMC10144346, “Novel PD-L1-Targeted Phenyl-Pyrazolone Derivatives with Antioxidant Properties” (Molecules, 2023):

Assay: Aldehyde (4-HNE) reactivity by HRMS
Details: 180 min, 37 °C, [M–H]-; for HRMS intensity of unreacted compound: with 4-HNE
Excerpt: Edaravone (1) is a reactive molecule known to form adducts with different aromatic aldehydes, such as formylpterin and vanillin [15, 19]. In aqueous solution, it forms mono- and bis-adducts with the aldehyde compound vanillin [20]. […] Here we have compared the reactivity of compounds 1–5 using another aldehyde with a major biological relevance, 4-hydroxynonenal. 4-HNE is a product of lipid peroxidation implicated in the pathogenesis of diverse human diseases, such as diabetes, aging-related diseases and cancers. […] Edaravone is known to react covalently with 4-HNE to form mono-, bis-, and tris-adducts in solution [25]. We used high-resolution mass spectrometry (HRMS) to monitor the formation of the covalent adducts generated with the phenyl-pyrazolones and 4-HNE after 3 h of incubation at physiological temperature in an aqueous buffer. The formation of mono-, bis-, and tris-adducts was detected unambiguously with each compound (Figure 8). A reaction scheme is represented in Figure 9 for compound 5. In each case, the pyrazolone compound (nucleophile) easily reacted with 4-HNE to generate the different species, each characterized by their corresponding mass (m/z), the ring-double-bond value (rdb, valence values of elements in structure), the signal intensity and the correspondence with the theoretical m/z value (Δppm) (Table 3). The different species can be easily identified, with the isotopic pattern characteristic for the presence of chlorine and carbon atoms (chlorine and carbon cluster isotopes). In all cases, the species formed were identified without any ambiguity from their relative abundances. […] These values were in accordance with the theorical abundances, calculated from the exactive software for the isotopic pattern of the ions from m/z = 489.13606 to m/z = 494.13323.
High resolution mass spectrometry (HRMS) and spectra were recorded with an Exactive Plus mass spectrometer (Thermo Fisher Scientific, San Jose, CA, USA) equipped with a heated electrospray ionisation probe (HESI -II). Each mass analyzer was calibrated with Pierce®ESI positive and negative ion calibration solutions each week (Thermo Fisher Scientific). Optimization of voltages, gas values, and temperatures applied for ion transfer and ionization was performed in negative mode. The tuning parameters were optimized separately with reaction mixture obtained from reaction of nucleophile with the aldehyde. This was completed by infusing first individual solutions of each nucleophile or the aldehyde at 10 pmol/µL. Each reaction mixture was performed during 180 min at 37 °C with the compound at 0.5 mM in phosphate buffer 10 mM, pH = 7.4 and then the reaction mixture was diluted 1/400 in MeOH. The solution was injected with a syringe at a flow rate of 10 µL/min. MS parameters were: sheath gas flow rate 45; auxiliary gas flow rate 10 arbitrary units (nitrogen was used as auxiliary and sheath gas); spray voltage −3.50 kV; capillary temperature 320 °C; auxiliary gas heater temperature 320 °C and S-lens RF level 50. The ions between m/z 150–1500 were scanned in high-resolution mode of the instrument. The identification of the reaction products was performed by HRMS data as elementary analysis parameters (m/z values, relative abundances of isotopic pattern, Ring Double Bond values and mass accuracies lower than 5 ppm).

Structure (SMILES)	HRMS intensity of bis-adduct with 4-HNE	HRMS intensity of mono-adduct with 4-HNE	HRMS intensity of tris-adduct with 4-HNE	HRMS intensity of unreacted compound
CCC1=NN(c2ccc(Cl)cc2Cl)C(=O)C1 [Compound 4, 1-(2,4-dichlorophenyl)-3-ethyl-1H-pyrazol-5(4H)-one]	2.05 × 10^6	9.70 × 10^5	3.76 × 10^5	3.45 × 10^6
COc1ccccc1C1=NN(c2ccc(Cl)cc2Cl)C(=O)C1 [Compound 3, 1-(2,4-Dichlorophenyl)-3-(2-methoxyphenyl)-1H-pyrazol-5(4H)-one]	1.56 × 10^6	3.23 × 10^6	2.53 × 10^5	3.84 × 10^6
CC1=NN(c2ccccc2)C(=O)C1 [Compound 1, edaravone, reference compound]	6.60 × 10^5	4.88 × 10^5	8.37 × 10^4	3.98 × 10^6
Oc1cc(-c2ccccc2F)nn1-c1ccc(Cl)cc1Cl [Compound 5, 1-(2,4-Dichlorophenyl)-3-(2-fluorophenyl)-1H-pyrazol-5-ol]	1.43 × 10^6	1.98 × 10^6	3.51 × 10^5	3.92 × 10^6
